Measurements: patent US20160347831A1
Where a chain is given by its changes, count along the chain named. These are yes or no findings as the source states them, for the method shown. Some binding calls cover weakened binding; strength is not graded here.

Protein sequences, listed by entry. Tags and fused reporters are not part of them. Residues count along the entry.
amyloid β in amyloid plaques (P05067, residues 672-713): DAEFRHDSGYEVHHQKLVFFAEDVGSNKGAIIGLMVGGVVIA
amyloid β in cerebral amyloid angiopathy (CAA) (P05067, residues 672-711): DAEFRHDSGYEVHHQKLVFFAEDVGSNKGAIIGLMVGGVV

Legend:
[1] = biological target: amyloid β in amyloid plaques (UniProt P05067); assay: labeling (Table 1)
[2] = biological target: amyloid β in amyloid plaques (UniProt P05067); assay: IHC after intracarotid infusion in mice
[3] = biological target: amyloid β in amyloid plaques (UniProt P05067); assay: IHC after intracarotid injection in mice
[4] = biological target: amyloid β in amyloid plaques (UniProt P05067); assay: immunohistochemistry on human AD brain sections
[5] = biological target: amyloid β in amyloid plaques (UniProt P05067); assay: IHC after stereotaxic injection in TauPS2APP mice
[6] = biological target: amyloid β in amyloid plaques (UniProt P05067); assay: labeling (Table 1); cell shared by the rows R3VE and R3VQ
[7] = biological target: amyloid β in cerebral amyloid angiopathy (CAA) (UniProt P05067); assay: labeling (Table 1)
[8] = biological target: amyloid β in amyloid plaques (UniProt P05067); assay: IHC on B6 PS2APP mouse paraffin sections
[9] = biological target: amyloid β in amyloid plaques (UniProt P05067); assay: IHC on B6.PS2APP mouse paraffin sections
[10] = biological target: amyloid β in amyloid plaques (UniProt P05067); assay: IHC after stereotaxic injection in mice
[11] = biological target: amyloid β in amyloid plaques (UniProt P05067); assay: IHC and MRI after soaking TauPS2APP mouse brains
[12] = biological target: amyloid β in amyloid plaques (UniProt P05067); assay: IHC and MRI after intracerebroventricular injection
[13] = biological target: amyloid β in amyloid plaques (UniProt P05067); assay: IHC and ex vivo MRI after intracerebroventricular injection
[14] = biological target: amyloid β in amyloid plaques (UniProt P05067); assay: IHC
[15] = biological target: amyloid β in amyloid plaques (UniProt P05067); assay: in vitro MRI, legend of FIG. 12
[16] = biological target: amyloid β in amyloid plaques (UniProt P05067); assay: ex vivo MRI after iv injection, legend of FIG. 13
[17] = biological target: amyloid β in amyloid plaques (UniProt P05067); assay: ex vivo MRI after intravenous injection in PS2APP mice
[18] = biological target: amyloid β in amyloid plaques (UniProt P05067); assay: in vitro MRI of PS2APP mouse brains incubated at 0.1 mg/ml

Measured: binding

B1: VHH R3VQ (VHH, not shown: small tags and cut ends)
VHH: EVQLQASGGGLVQTGDSLRLSCADSGSTFRNYNIGWFRQTPGQAREFVAAVSRTGISTHVADSLQGRFTISRDNAKNTVYLQMNSLKPEDTAVYSCAAGRPGVGAVNRAMDYDYWGQGTQVTVSS
binds: [1] | [2] | [3] | [4] | [5] | [6]

B2: VHH R3VE (VHH, not shown: small tags and cut ends)
VHH: B1 VHH with Q5E
binds: [7]

B3: R3VQ-SH (VHH)
VHH: B1 VHH with E1A, S124G, S125G
binds: [8] | [9]

B4: R3VQ-N-(DOTA/Gd)1-2 2e (VHH, not shown: small tags and cut ends)
VHH: B1 VHH
modifications: DOTA/Gd randomly distributed on lysine residues; average Gd/protein (0) 1 2 (3)
binds: [10] | [11] | [12] | [13]

B5: R3VQ-S-(DOTA/Gd)3 (VHH)
VHH: B1 VHH with E1A, S124G, S125G
modifications: maleimido-(DOTA/Gd)3 compound 4 on the engineered C-terminal Cys (thio-addition)
binds: [14] | [15] | [16] | [17] | [18]
